Measured values as given in article PMC5663514, “Biochemical characterization of Borrelia burgdorferi’s RecA protein”.
For at least one entry, the source does not settle the construct or the ends of the probe. A weaker result is weaker than the reference pair of the same experiment. At least one verdict rests on a figure or table, not on a statement of the authors. Where a protein sequence is shown, tags need not be part of it.

Target: T1, B. burgdorferi RecA (Borrelia burgdorferi B31) (UniProt Q59180)
T1 sequence (looked up, limits assumed): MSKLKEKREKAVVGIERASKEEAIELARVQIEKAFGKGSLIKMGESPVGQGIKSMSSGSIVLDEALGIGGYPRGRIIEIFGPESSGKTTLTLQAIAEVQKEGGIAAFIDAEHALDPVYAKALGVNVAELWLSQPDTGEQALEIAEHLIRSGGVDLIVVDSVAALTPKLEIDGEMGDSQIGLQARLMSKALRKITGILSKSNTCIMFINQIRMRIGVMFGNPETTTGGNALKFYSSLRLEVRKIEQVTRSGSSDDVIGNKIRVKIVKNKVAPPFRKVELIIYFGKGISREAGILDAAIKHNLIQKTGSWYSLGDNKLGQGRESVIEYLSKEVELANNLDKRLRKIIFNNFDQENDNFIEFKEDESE
Assay: EMSA with glutaraldehyde protein-protein crosslinking
Settings: 2 mM Mg2+, 25 mM HEPES pH 7.6, 2 mM MgCl2, 1 mM DTT, 50 mM NaCl, 10 nM DNA molecules, 30°C 5 min, then 0.033% glutaraldehyde 5 min at 20°C/room temperature, recombinant protein

| Sequence | binding result (2 mM ATP, ssDNA preferred over dsDNA) | binding result (no ATP, ssDNA preferred over dsDNA, +/- 2 mM ATP) | binding result (no ATP, lower affinity than with ATP, +/- 2 mM ATP, single-stranded DNA) |
| --- | --- | --- | --- |
| TGCAGGCATGCAAGCTTGGCGTAATCATGGTCATAGCTGTTTCCTGTGTGAAATTGTTATCCGCTCACAATTCCACACAACATACGAGCCGGAAG (double strand) [OGCB396/OGCB742 95 bp dsDNA] | binds more weakly | binds more weakly |  |
| TGCAGGCATGCAAGCTTGGCGTAATCATGGTCATAGCTGTTTCCTGTGTGAAATTGTTATCCGCTCACAATTCCACACAACATACGAGCCGGAAG [OGCB396 95 nt ssDNA] |  |  | binds |
